These are yes or no findings as the source states them, for the method shown. Binding seen in cells or lysates may run through a third protein. Some binding calls cover weakened binding; strength is not graded here.
Target: mediator of RNA polymerase II transcription subunit 1 (Med1) (human (endogenous in HEK 293T)) (UniProt Q15648)
Test: co-IP; 293T cells transfected with BAP1 or BAP1 C91A plasmids for 36 h; lysis buffer 50 mM Tris-HCl pH 7.5, 1 mM EDTA, 10% glycerol, 300 mM NaCl, 1% Triton-100; lysates incubated with anti-Med1 overnight at 4°C and protein A/G PLUS-Agarose for 2 h; immunoblot with anti-SRT or anti-BAP1

Sequences of proteins named here, by UniProt entry; tags and fusion partners are left off.
UniProt Q15648: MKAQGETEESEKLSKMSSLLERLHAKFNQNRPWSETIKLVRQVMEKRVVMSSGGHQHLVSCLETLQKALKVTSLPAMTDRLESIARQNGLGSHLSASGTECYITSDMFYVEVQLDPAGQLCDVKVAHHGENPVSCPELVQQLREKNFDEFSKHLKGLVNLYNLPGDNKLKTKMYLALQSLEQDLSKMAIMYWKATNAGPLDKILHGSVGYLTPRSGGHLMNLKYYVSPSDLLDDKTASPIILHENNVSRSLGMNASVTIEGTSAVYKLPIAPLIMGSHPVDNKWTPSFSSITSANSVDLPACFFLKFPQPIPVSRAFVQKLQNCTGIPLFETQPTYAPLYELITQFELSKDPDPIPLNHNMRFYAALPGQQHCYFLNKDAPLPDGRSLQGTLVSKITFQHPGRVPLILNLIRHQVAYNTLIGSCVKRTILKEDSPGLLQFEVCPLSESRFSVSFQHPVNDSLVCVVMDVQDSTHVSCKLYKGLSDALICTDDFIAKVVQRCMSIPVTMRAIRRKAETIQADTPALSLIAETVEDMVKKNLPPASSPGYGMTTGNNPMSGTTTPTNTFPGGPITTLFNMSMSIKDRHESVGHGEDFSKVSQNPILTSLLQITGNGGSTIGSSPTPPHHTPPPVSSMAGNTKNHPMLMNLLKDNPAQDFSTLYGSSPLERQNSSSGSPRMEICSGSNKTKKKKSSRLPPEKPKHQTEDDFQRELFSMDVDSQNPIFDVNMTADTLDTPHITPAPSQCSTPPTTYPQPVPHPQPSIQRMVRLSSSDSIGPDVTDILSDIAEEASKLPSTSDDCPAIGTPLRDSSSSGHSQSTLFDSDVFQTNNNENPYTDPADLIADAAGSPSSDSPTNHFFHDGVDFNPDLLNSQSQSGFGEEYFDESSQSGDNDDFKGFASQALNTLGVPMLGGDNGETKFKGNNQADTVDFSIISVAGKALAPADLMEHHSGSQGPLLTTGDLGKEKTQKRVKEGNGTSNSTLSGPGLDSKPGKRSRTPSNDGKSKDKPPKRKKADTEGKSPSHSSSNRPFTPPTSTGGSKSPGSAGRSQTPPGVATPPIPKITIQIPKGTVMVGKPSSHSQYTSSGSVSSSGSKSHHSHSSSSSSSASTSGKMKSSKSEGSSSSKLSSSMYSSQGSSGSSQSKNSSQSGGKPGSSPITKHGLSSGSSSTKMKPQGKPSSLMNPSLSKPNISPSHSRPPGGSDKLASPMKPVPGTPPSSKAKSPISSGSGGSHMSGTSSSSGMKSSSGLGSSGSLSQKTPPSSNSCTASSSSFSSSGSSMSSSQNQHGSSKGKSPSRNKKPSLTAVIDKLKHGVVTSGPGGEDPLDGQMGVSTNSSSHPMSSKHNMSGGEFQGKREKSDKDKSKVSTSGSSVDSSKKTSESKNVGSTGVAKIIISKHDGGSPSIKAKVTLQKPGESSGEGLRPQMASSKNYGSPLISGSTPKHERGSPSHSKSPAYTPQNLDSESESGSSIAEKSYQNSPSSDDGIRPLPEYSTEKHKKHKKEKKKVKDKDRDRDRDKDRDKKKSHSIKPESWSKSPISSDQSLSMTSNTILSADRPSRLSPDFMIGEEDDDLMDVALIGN
UniProt Q92560: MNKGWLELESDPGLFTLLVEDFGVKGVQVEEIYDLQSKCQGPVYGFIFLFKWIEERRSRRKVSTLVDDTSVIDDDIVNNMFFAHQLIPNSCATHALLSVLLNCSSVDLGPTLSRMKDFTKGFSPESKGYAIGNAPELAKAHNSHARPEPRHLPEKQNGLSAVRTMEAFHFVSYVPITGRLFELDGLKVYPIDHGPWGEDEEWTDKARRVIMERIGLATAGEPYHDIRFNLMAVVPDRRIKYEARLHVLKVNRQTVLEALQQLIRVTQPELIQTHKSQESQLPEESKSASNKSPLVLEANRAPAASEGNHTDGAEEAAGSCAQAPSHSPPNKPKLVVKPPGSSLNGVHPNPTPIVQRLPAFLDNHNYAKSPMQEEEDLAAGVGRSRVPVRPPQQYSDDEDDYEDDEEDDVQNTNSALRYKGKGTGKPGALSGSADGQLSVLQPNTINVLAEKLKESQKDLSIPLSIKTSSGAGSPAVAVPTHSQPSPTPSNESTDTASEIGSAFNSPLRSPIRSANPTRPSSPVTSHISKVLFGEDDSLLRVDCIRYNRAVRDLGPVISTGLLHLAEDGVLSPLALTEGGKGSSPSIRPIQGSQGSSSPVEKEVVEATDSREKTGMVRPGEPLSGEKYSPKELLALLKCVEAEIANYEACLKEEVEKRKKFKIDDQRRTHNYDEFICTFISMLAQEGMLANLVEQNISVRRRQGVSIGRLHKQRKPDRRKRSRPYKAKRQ

binding: binds
Substance: SRT-BAP1 wild type (BRCA1-associated protein 1) (from UniProt Q92560 1-729) (enzyme)
